PubChem BioAssay AID248 (DTP/NCI, 2004)
The list does not hold the whole screen: it gathers some chemical classes. Other doses and runs of a compound may be missing. T/C is the treated group as % of the vehicle group. For survival time, the PubChem record calls one and a half times the control and up active, and a quarter to a half above the control has no call in these data; cut-offs in other NCI protocols can differ. Some entries show no survivor count and are marked so; the dose need not have been tolerated. Schedule codes are those of the source, read here as Q, the interval in days (D) or hours (H), X, the number of doses. Some entries were tested several times; the results are listed from low to high. Additions like (4×) count equal records among those shown.

System: L1210 leukemia ip in BDF1 mice, survival T/C
Test: NCI In Vivo Anticancer Drug Screen. Data for tumor model L1210 Leukemia (intraperitoneal) in B6D2F1 (BDF1) mice
Details: T/C endpoint: mean survival time, higher T/C = longer survival

SMILES: Cc1ccc(C(=O)O)cc1N(CCCl)CCCl
- T/C (dose: 1.1 mg/kg/injection, schedule: Q01DX009 (ip), vehicle: Klucel (hydroxypropylcellulose) (HPC)): 116 % of control [survivor count not shown]
- T/C (dose: 1.56 mg/kg/injection, schedule: Q01DX009 (ip), vehicle: Klucel (hydroxypropylcellulose) (HPC)): 103 % of control [survivor count not shown]
- T/C (dose: 1.7 mg/kg/injection, schedule: Q01DX009 (ip), vehicle: Klucel (hydroxypropylcellulose) (HPC)): 108 % of control [survivor count not shown]
- T/C (dose: 2.6 mg/kg/injection, schedule: Q01DX009 (ip), vehicle: Klucel (hydroxypropylcellulose) (HPC)): 117 % of control [survivor count not shown]
- T/C (dose: 3.12 mg/kg/injection, schedule: Q01DX009 (ip), vehicle: Klucel (hydroxypropylcellulose) (HPC)): 108 % of control [survivor count not shown]
- T/C (dose: 3.12 mg/kg/injection, schedule: Q04DX003 (ip), vehicle: Klucel (hydroxypropylcellulose) (HPC)): 90 % of control [survivor count not shown]
- T/C (dose: 4.0 mg/kg/injection, schedule: Q01DX009 (ip), vehicle: Klucel (hydroxypropylcellulose) (HPC)): 105 % of control [survivor count not shown]
- T/C (dose: 6.1 mg/kg/injection, schedule: Q01DX009 (ip), vehicle: Klucel (hydroxypropylcellulose) (HPC)): 170 % of control [survivor count not shown]
- T/C (dose: 6.2 mg/kg/injection, schedule: Q04DX003 (ip), vehicle: Klucel (hydroxypropylcellulose) (HPC)): 114 % of control [survivor count not shown]
- T/C (dose: 6.25 mg/kg/injection, schedule: Q01DX009 (ip), vehicle: Klucel (hydroxypropylcellulose) (HPC)): 121 % of control [survivor count not shown]
- T/C (dose: 6.25 mg/kg/injection, schedule: Q04DX003 (ip), vehicle: Klucel (hydroxypropylcellulose) (HPC)): 101 % of control [survivor count not shown]
- T/C (dose: 8.3 mg/kg/injection, schedule: Q04DX003 (ip), vehicle: Klucel (hydroxypropylcellulose) (HPC)): 139 % of control [survivor count not shown]
- T/C (dose: 12.5 mg/kg/injection, schedule: Q01DX009 (ip), vehicle: Klucel (hydroxypropylcellulose) (HPC)): 176 % of control [survivor count not shown]
- T/C (dose: 12.5 mg/kg/injection, schedule: Q04DX003 (ip), vehicle: Klucel (hydroxypropylcellulose) (HPC)): 101 [survivor count not shown], 136 [survivor count not shown], 155 % of control [survivor count not shown]
- T/C (dose: 18.0 mg/kg/injection, schedule: Q01DX009 (ip), vehicle: Klucel (hydroxypropylcellulose) (HPC)): 95 % of control [survivor count not shown]
- T/C (dose: 18.7 mg/kg/injection, schedule: Q04DX003 (ip), vehicle: Klucel (hydroxypropylcellulose) (HPC)): 111 % of control [survivor count not shown]
- T/C (dose: 25.0 mg/kg/injection, schedule: Q04DX003 (ip), vehicle: Klucel (hydroxypropylcellulose) (HPC)): 100 [survivor count not shown] and 127 % of control [survivor count not shown]
- T/C (dose: 28.0 mg/kg/injection, schedule: Q01DX009 (ip), vehicle: Klucel (hydroxypropylcellulose) (HPC)): 113 % of control [survivor count not shown]

SMILES: CCC1(N(CCCl)CCCl)C(=O)NC(=O)NC1=O
- T/C (dose: 50.0 mg/kg/injection, schedule: Q04DX002 (ip), vehicle: Klucel (hydroxypropylcellulose) (HPC)): 107 % of control [survivor count not shown]
- T/C (dose: 100.0 mg/kg/injection, schedule: Q04DX002 (ip), vehicle: Klucel (hydroxypropylcellulose) (HPC)): 94 [survivor count not shown], 107 [survivor count not shown], 132 % of control [survivor count not shown]
- T/C (dose: 200.0 mg/kg/injection, schedule: Q04DX002 (ip), vehicle: Klucel (hydroxypropylcellulose) (HPC)): 115 [survivor count not shown] and 132 % of control [survivor count not shown] (2×)
- T/C (dose: 400.0 mg/kg/injection, schedule: Q04DX002 (ip), vehicle: Klucel (hydroxypropylcellulose) (HPC)): 102 [survivor count not shown], 109 [survivor count not shown], 114 % of control [survivor count not shown]

SMILES: COc1c(C)cc(N(CCCl)CCCl)c2ccccc12
- T/C (dose: 10.0 mg/kg/injection, schedule: Q01DX009 (ip), vehicle: carboxymethylcellulose (CMC)): 116 % of control [survivor count not shown]
- T/C (dose: 18.0 mg/kg/injection, schedule: Q01DX009 (ip), vehicle: carboxymethylcellulose (CMC)): 109 % of control [survivor count not shown]
- T/C (dose: 20.0 mg/kg/injection, schedule: Q01DX009 (ip), vehicle: carboxymethylcellulose (CMC)): 126 % of control [survivor count not shown]
- T/C (dose: 25.0 mg/kg/injection, schedule: Q01DX001 (ip), vehicle: carboxymethylcellulose (CMC)): 103 % of control [survivor count not shown]
- T/C (dose: 29.0 mg/kg/injection, schedule: Q01DX009 (ip), vehicle: carboxymethylcellulose (CMC)): 119 [survivor count not shown] and 122 % of control [survivor count not shown]
- T/C (dose: 29.0 mg/kg/injection, schedule: Q01DX009 (ip), vehicle: saline): 134 % of control [survivor count not shown]
- T/C (dose: 45.0 mg/kg/injection, schedule: Q01DX009 (ip), vehicle: carboxymethylcellulose (CMC)): 120 [survivor count not shown] and 122 % of control [survivor count not shown]
- T/C (dose: 45.0 mg/kg/injection, schedule: Q01DX009 (ip), vehicle: saline): 157 % of control [survivor count not shown]
- T/C (dose: 50.0 mg/kg/injection, schedule: Q01DX001 (ip), vehicle: carboxymethylcellulose (CMC)): 111 % of control [survivor count not shown]
- T/C (dose: 65.0 mg/kg/injection, schedule: Q01DX009 (ip), vehicle: carboxymethylcellulose (CMC)): 91 [survivor count not shown] and 132 % of control [survivor count not shown]
- T/C (dose: 65.0 mg/kg/injection, schedule: Q01DX009 (ip), vehicle: saline): 140 % of control [survivor count not shown]
- T/C (dose: 90.0 mg/kg/injection, schedule: Q01DX001 (ip), vehicle: saline): 116 [survivor count not shown] and 117 % of control [survivor count not shown]
- T/C (dose: 100.0 mg/kg/injection, schedule: Q01DX001 (ip), vehicle: carboxymethylcellulose (CMC)): 117 % of control [survivor count not shown]
- T/C (dose: 100.0 mg/kg/injection, schedule: Q01DX001 (ip), vehicle: saline): 148 % of control [survivor count not shown]
- T/C (dose: 100.0 mg/kg/injection, schedule: Q01DX009 (ip), vehicle: carboxymethylcellulose (CMC)): 96 [survivor count not shown] and 102 % of control [survivor count not shown]
- T/C (dose: 100.0 mg/kg/injection, schedule: Q01DX009 (ip), vehicle: saline): 97 % of control [survivor count not shown]
- T/C (dose: 135.0 mg/kg/injection, schedule: Q01DX001 (ip), vehicle: saline): 118 [survivor count not shown] and 126 % of control [survivor count not shown]
- T/C (dose: 177.6 mg/kg/injection, schedule: Q01DX001 (ip), vehicle: carboxymethylcellulose (CMC)): 120 % of control [survivor count not shown]
- T/C (dose: 200.0 mg/kg/injection, schedule: Q01DX001 (ip), vehicle: carboxymethylcellulose (CMC)): 123 % of control [survivor count not shown]
- T/C (dose: 200.0 mg/kg/injection, schedule: Q01DX001 (ip), vehicle: saline): 122 [survivor count not shown], 129 [survivor count not shown], 160 % of control [survivor count not shown]
- T/C (dose: 266.8 mg/kg/injection, schedule: Q01DX001 (ip), vehicle: carboxymethylcellulose (CMC)): 127 % of control [survivor count not shown]
- T/C (dose: 300.0 mg/kg/injection, schedule: Q01DX001 (ip), vehicle: saline): 116 [survivor count not shown] and 134 % of control [survivor count not shown]
- T/C (dose: 400.0 mg/kg/injection, schedule: Q01DX001 (ip), vehicle: carboxymethylcellulose (CMC)): 127 [survivor count not shown] and 129 % of control [survivor count not shown]
- T/C (dose: 400.0 mg/kg/injection, schedule: Q01DX001 (ip), vehicle: saline): 113 % of control [survivor count not shown]
- T/C (dose: 600.0 mg/kg/injection, schedule: Q01DX001 (ip), vehicle: carboxymethylcellulose (CMC)): 125 % of control [survivor count not shown]
